System: male Sprague-Dawley (S-D) rats
Assay: ICV OA infusion with pancreatic-insulin clamp (insulin action studies)
Type: in vivo, rat
Settings: Basal
Source text: Insulin action studies. The experimental protocol herein was designed to examine the effect of nutritional status on the ability of long-chain fatty acids in the hypothalamus to modulate carbohydrate metabolism. Rats (n=43) were implanted with chronic catheters as previously described (Liu et al., 1998). After full recovery from the catheterization, animals were randomized into three groups HF55 (n=16), HF80 (n=9), or HF140 (n=18) and were allowed to consume their allocated diet for three days. On the night prior to the in vivo study all rats received 55 kcal to ensure a similar nutritional state at the start of the metabolic studies. All studies were performed in awake, unstressed, chronically catheterized rats. At t=−120 (FIG. 7a), a primed-continuous infusion of ICV OA (total dose 30- or 300-nmol) or Vehicle (HBP 10% in aCSF) was initiated and maintained throughout the duration of the study. Plasma glucose was measured periodically initiating at the onset (t=−120) of the ICV infusion and lasting throughout the duration of the study. Plasma samples for determination of insulin, leptin, and non-esterified fatty acid concentration were obtained at the onset (t=−120) and at 30 min intervals during the study. At t=0, and a primed-continuous infusion of HPLC-purified [3-3H]-glucose (New England Nuclear, Boston, Mass.; 40 μCi bolus, 0.4 μCi/min for duration of the study) was initiated and maintained for the last four hours of the study. Samples for determination of ^3H-glucose specific activity were obtained at 10-minute intervals throughout infusions. Finally, at t=120, a pancreatic-insulin clamp study was initiated and maintained for two hours. During this procedure, a primed-continuous infusion of regular insulin (1 mU/kg/min) was administered, and a variable infusion of 25% glucose solution was started at t=120 and periodically adjusted to clamp the plasma glucose concentration at ˜7 mM. […]
Analytical Procedures and Calculations. Plasma glucose was measured by the glucose oxidase method (Glucose Analyzer II, Beckman Instruments, Inc. Fullerton, Calif., USA). Plasma insulin and leptin levels were determined by RIA (rat Leptin RIA kit, Linco Research Inc., St. Charles, Mo.). Serum adiponectin was measured by RIA (Linco Research, Inc., St. Charles, Mo.). Plasma non-esterified fatty acid concentrations were determined an enzymatic method by an automated kit according to the manufacturer's specifications (Waco Pure Chemical Industries. Osaka, Japan). The radioactivity of [3-^3H]glucose in plasma was measured from supernatants of Ba (OH)2 and from ZnSO4 precipitates (Somogyi procedure), after each was evaporated to dryness for the removal of tritiated water. […]

SMILES: CCCCCCCC/C=C\CCCCCCCC(=O)O [OA, oleic acid]
- Adiponectin (HF55, ICV OA): 3.6 ± 0.5 µg/mL
- Adiponectin (HF80, ICV OA): 2.9 ± 0.4 µg/mL
- Adiponectin (HF140, ICV OA (30 nmol)): 3.8 ± 0.3 µg/mL
- Adiponectin (HF140, ICV OA (300 nmol)): 4.0 ± 0.5 µg/mL

Source: patent US7705016B2, “Regulation of food intake by modulation of long-chain fatty acyl-CoA levels in the hypothalamus” (Albert Einstein College of Medicine of Yeshiva University, priority 2003, dated 2010)
